# From publication PMC10696399
# Target: T1, FLAG-tagged SpvB (S. Typhimurium strain SL1344) (UniProt P21454)
# T1 sequence: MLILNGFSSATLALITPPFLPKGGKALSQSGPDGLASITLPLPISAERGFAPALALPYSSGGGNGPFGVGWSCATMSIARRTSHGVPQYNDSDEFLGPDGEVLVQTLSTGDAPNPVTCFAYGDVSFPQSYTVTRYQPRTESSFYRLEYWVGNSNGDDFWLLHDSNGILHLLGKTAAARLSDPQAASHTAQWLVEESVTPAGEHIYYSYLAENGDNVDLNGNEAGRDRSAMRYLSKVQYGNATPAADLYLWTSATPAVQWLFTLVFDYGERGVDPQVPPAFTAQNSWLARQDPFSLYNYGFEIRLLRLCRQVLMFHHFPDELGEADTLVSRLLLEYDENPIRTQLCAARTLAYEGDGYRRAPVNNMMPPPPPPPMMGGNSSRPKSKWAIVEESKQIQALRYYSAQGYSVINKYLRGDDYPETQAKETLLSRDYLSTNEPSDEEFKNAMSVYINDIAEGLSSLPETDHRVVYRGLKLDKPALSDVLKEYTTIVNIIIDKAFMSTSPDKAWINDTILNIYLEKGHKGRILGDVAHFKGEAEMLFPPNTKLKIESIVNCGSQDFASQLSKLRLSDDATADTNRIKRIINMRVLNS
# Experiment: co-IP
substance,measurement,value
AP-1γ (endogenous) (human (endogenous in HEK293T)),binding,binds

# Results are given in words; binding and its absence hold for the method and conditions named. Binding seen in cells or lysates may run through a third protein. Binding can be weak; no strength is given. Sequences can lack the tags named with a protein.
